PubChem BioAssay AID686943, Drosophila RNAi Screening Center, 2013

Test: 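Fly genes whose loss alters ERK activation after insulin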 (primary screen)
Cells: Drosophila S2R+ haemocyte-like cells expressing YFP-tagged ERK (Rolled)
Reagents: long dsRNA against Drosophila genes
Treatment: insulin stimulation versus unstimulated cells; dose and duration not given
Detection: 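Antibody staining for doubly phosphorylated ERK divided by ERK-YFP signal, as plate z-scores, in insulin-treated and untreated cells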
Scale: replicate 1, z-score of dpERK with insulin and replicate 2, z-score of dpERK with insulin: higher = more active ERK per ERK-YFP after insulin; replicate 1, z-score of dpERK under basal conditions: higher = more basal active ERK per ERK-YFP; replicate 1, z-score of ERK-YFP with insulin: higher = more YFP-tagged ERK signal
In all, the deposit lists about 23,000 reagents; this is a random part of those that have a named target and a result. 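Extra replicates exist only for a retested subset of genes; insulin dose and duration not given; both raised and lowered dpERK matter.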 Reagents against one gene are numbered here. A plus sign joins genes that one reagent is predicted to hit. Reagent sequences are not shown. Not given: the amount of reagent, the time to read-out.

Target gene	dsRNA no.	replicate 1, z-score of dpERK with insulin	replicate 2, z-score of dpERK with insulin	replicate 1, z-score of dpERK under basal conditions	replicate 1, z-score of ERK-YFP with insulin
Secp43 (tRNA Selenocysteine associated protein)	1	0.87	1.44	0.22	0.29
CG8008	1	-0.4	-1.52	0.43	-0.68
CG42615	1	1.33	0.88	1.2	0.19
CG31913	1	-0.66	1.04	-0.02	-0.33
l(2)efl (lethal (2) essential for life)	1	0.36	-0.47	1.45	-0.53
CG13293	1	-0.01	0.08	-0.95	-0.04
CG33467	1	1	-0.2	1.2	0.2
CG33467	2	0.02	0.51	-0.72	2.11
CG33160	1	0.5	-0.12	0.36	-0.39
CG10139	1	-0.28	0.13	-0.16	0.39
CG9967	1	-0.11	-0.09	-0.33	-0.14
CG15506	1	-0.84	-1.01	0.12	0.44
Uba5 (Ubiquitin-like activating enzyme 5)	1	0.38	0.67	1.08	0.59
CG1416	1	0.36	-0.2	-0.48	-0.75
CG15282	1	-1.22	-0.33	0.63	1.74
wake (wide awake)	1	-0.06	-0.41	-0.5	0.08
wake (wide awake)	2	0.06	-0.31	-0.67	-0.12
CG34029	1	0.58	0.4	0.09	0.39
CG43736	1	-0.62	0.15	-0.32	0.51
CG43736	2	1.21	0.16	-0.52	-0.28
CG30440	1	0.55	0.75	0.85	0.58
CG30440	2	-0.03	0.28	2.61	0.15
CG30440	3	-0.73	-0.14	0.11	0.25
CG12729	1	0.84	0.94	0.2	0.14
Hsp60C (Heat shock protein 60C)	1	-0.66	0.31	0.19	0.77
Jon74E (Jonah 74E)	1	-0.3	-0.06	0.81	-0.28
Spf45	1	0.22	0.94	0.7	-2.63
Argk1 (Arginine kinase 1)	1	0.5	-0.11	0.75	0.55
Argk1 (Arginine kinase 1)	2	0.68	0.95	0.77	-0.5
Argk1 (Arginine kinase 1)	3	0.77	0.35	0.7	0.44
Argk1 (Arginine kinase 1)	4	0.45	0.75	0.92	0.08
Argk1 (Arginine kinase 1)	5	0.62	0.08	-0.51	2.29
CG15657	1	0.21	0.03	-0.06	-0.5
GIIIspla2 (Phospholipase A2 group III)	1	-0.25	-1.09	0.38	-0.15
CG7059	1	0.23	-0.03	-0.36	0.34
TTLL6A (Tubulin tyrosine ligase-like 6A)	1	0.93	0.2	1.1	0.01
Hsp60D (Heat shock protein 60D)	1	-0.41	-0.76	-0.1	0.3
Gcn5 (Gcn5 acetyltransferase)	1	0.93	-0.06	-0.43	-0.29
Adgf-A2 (Adenosine deaminase-related growth factor A2)	1	0.41	0.01	1.74	-0.12
Fatp3 (Fatty acid transport protein 3)	1	-0.88	-0.07	-0.36	0.54
crq (croquemort)	1	0.28	0.05	1.45	1.16
sob	1	1.29	0.86	-0.15	-0.12
spn-E (spindle E)	1	0.08	0.38	-0.42	0.74
alphaTub67C (alpha-Tubulin at 67C)	1	-1.99	-1.56	2.39	-1.81
eIF3j (eukaryotic translation initiation factor 3 subunit j)	1	-0.95	-0.31	0.43	-0.22
Evi5 (Ecotropic viral integration site 5)	1	0.02	0.09	0.27	-0.12
Gr9a (Gustatory receptor 9a)	1	0.25	0.54	-0.91	1.44
CG4763	1	-0.1	-0.73	-1.94	-0.25
CG4763	2	0.81	-0.27	0.23	-0.76
Rbbp5 (Retinoblastoma binding protein 5)	1	0.03	-0.41	0.51	0.6
SWIP (Strumpellin and WASH-interacting protein)	1	-0.22	-0.04	0.26	0.1
CG32971	1	0.17	0.15	0.54	0.27
CG33252	1	0.24	0.28	0.29	0.13
pre-mod(mdg4)-W + pre-mod(mdg4)-Y + mod(mdg4) + 3 more	1	-0.85	0.16	-0.11	0.17
EAChm (Enhancer of Acetyltransferase Chameau)	1	0.18	-0.45	1.19	0.76
TTLL6B (Tubulin tyrosine ligase-like 6B)	1	0.08	-0.1	-0.31	-0.56
CG14115	1	-0.38	-0.18	-0.69	0.58
